System: porcine islets
Test: Static glucose stimulation (SGS): insulin secretion of cultured porcine islets
Format: cell-based
Settings: Lidocaine during pancreatic digestion
From the text: Static glucose stimulation (SGS) is used to assess in vitro function of the porcine islets by exposing them to low and high concentrations of glucose and theophylline. Determination of the in vitro insulin secretory capacity is undertaken on both free islets (after 3 days in culture) and after their subsequent encapsulation or confinement.
Keep the cells 3 days in culture before Static Glucose Stimulation (SGS). SGS involves exposure of the cells to low and high concentration of glucose to check insulin production. Using 0.1 ug/ml concentration add IGF1 and GPE to two plates 24 hours before SGS (day 2 after isolation)

With `CCN(CC)CC(=O)Nc1c(C)cccc1C` [Lidocaine, reference compound] the “increase of insulin production/g of pancreas” value was 6 fold.

Reference: patent US20040014212A1, “Preparation and xenotransplantation or porcine islets” (priority 2000, published 2004)
